Data taken from US20220089777A1 (ARONORA, published 2022).
Results are given in words; binding and its absence hold for the method and conditions named. For some of these results: Binding calls can cover weak binding; strength is not graded here.

What was measured:
Experiment in all cases: western blot of human FXI/PK chimeras, non-reducing 10% polyacrylamide gel, detection with biotinylated AB023
A1 (FX/PK CHIMERAS) = biological target: A1 (FX/PK CHIMERAS)
A2 (FX/PK CHIMERAS) = biological target: A2 (FX/PK CHIMERAS)
A3 (FX/PK CHIMERAS) = biological target: A3 (FX/PK CHIMERAS)
A4* (FX/PK CHIMERAS) = biological target: A4* (FX/PK CHIMERAS)

binding (A1 (FX/PK CHIMERAS)): binds | binding (A2 (FX/PK CHIMERAS)): no binding | binding (A3 (FX/PK CHIMERAS)): binds | binding (A4* (FX/PK CHIMERAS)): binds
B1: AB023, humanized anti-FXI monoclonal antibody (variant VH3/Vκ3, clone 3G3) (antibody, V domains shown)
VH: QVQLQESGPGLVKPSETLSITCTVSGFSLTGYGIYWVRQPPGKGLEWLGMIWGDGRTDYNSALKSRVTISKDNSKSQVSLKLSSVTAADTARYYCARDYYGSKDYWGQGTTVTVSS
VL: DIQMTQSPSSLSASVGDRVTITCKASQDVSTAVAWYQQKPGKAPKLLIYLTSYRNTGVPDRFSGSGSGTDFTFTISSLQPEDIAVYYCQQHYKTPYSFGGGTKVEIKR
notes: Human IgG4 with S241P (Kabat) hinge modification, kappa light chain; also called A13023; A8023
